Data taken from article doi:10.1101/2021.12.02.470968.
No constants are given. Whether binding was seen depends on the method and setting. For some of these results: Binding calls can cover weak binding; strength is not graded here. Where a sequence is shown, tags or fusion partners need not be part of it.

B1: EGFP-DCX (protein, UniProt O43602 1-365)
chain: MELDFGHFDERDKTSRNMRGSRMNGLPSPTHSAHCSFYRTRTLQALSNEKKAKKVRFYRNGDRYFKGIVYAVSSDRFRSFDALLADLTRSLSDNINLPQGVRYIYTIDGSRKIGSMDELEEGESYVCSSDNFFKKVEYTKNVNPNWSVNVKTSANMKAPQSLASSNSAQARENKDFVRPKLVTIIRSGVKPRKAVRVLLNKKTAHSFEQVLTDITEAIKLETGVVKKLYTLDGKQVTCLHDFFGDDDVFIACGPEKFRYAQDDFSLDENECRVMKGNPSATAGPKASPTPQKTSAKSPGPMRRSKSPADSGNDQDANGTSSSQLSTPKSKQSPISTPTSPGSLRKHKDLYLPLSLDDSDSLGDSM
B2: EGFP-MAP2C (protein, UniProt P11137-2 1-471)
chain: MADERKDEAKAPHWTSAPLTEASAHSHPPEIKDQGGAGEGLVRSANGFPYREDEEGAFGEHGSQGTYSNTKENGINGELTSADRETAEEVSARIVQVVTAEAVAVLKGEQEKEAQHKDQTAALPLAAEETANLPPSPPPSPASEQTVTVEEAAGGESALAPSVFKQAKDKVSDGVTKSPEKRSSLPRPSSILPPRRGVSGDRDENSFSLNSSISSSARRTTRSEPIRRAGKSGTSTPTTPGSTAITPGTPPSYSSRTPGTPGTPSYPRTPHTPGTPKSAILVPSEKKVAIIRTPPKSPATPKQLRLINQPLPDLKNVKSKIGSTDNIKYQPKGGQVQIVTKKIDLSHVTSKCGSLKNIRHRPGGGRVKIESVKLDFKEKAQAKVGSLDNAHHVPGGGNVKIDSQKLNFREHAKARVDHGAEIITQSPGRSSVASPRRLSNVSSSGSINLLESPQLATLAEDVTAALAKQGL

Columns and labels:
[1] = molecular target: microtubules of COS-7 cells expressing mCherry-α-tubulin (not stated | African green monkey (endogenous in COS-7)); assay: condition: only with 20 μM ZnCl2 and 2.5 μM pyrithione
[2] = molecular target: microtubules of COS-7 cells expressing mCherry-α-tubulin (not stated | African green monkey (endogenous in COS-7)); assay: live-cell confocal imaging of microtubule decoration

Binder	binding [1]	binding [2]
B1	no binding	binds
B2	no binding	binds
